In paper PMC12583513, “Deciphering the molecular mechanism of the bacterial division motor TolQRA” (Cell Discovery, 2025) one finds binding data, which are given here for two molecules.

Amino acid sequences for entries named in this document (tags omitted). A change or cut given only in a name is not applied to a line headed by its entry.
UniProt P19934: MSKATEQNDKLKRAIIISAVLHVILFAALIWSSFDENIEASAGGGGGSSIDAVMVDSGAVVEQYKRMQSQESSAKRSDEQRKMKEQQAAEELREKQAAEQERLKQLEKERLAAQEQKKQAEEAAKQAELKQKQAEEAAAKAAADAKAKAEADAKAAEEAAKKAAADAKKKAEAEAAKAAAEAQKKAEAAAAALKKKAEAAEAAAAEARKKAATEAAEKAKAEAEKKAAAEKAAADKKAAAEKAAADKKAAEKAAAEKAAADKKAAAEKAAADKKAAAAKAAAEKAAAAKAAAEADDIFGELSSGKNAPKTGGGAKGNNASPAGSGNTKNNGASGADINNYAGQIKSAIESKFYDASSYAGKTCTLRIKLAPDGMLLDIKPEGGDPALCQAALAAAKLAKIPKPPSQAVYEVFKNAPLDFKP

Where a chain is given by its changes, count along the chain named. In names and notes the source's numbering stands. Results are given in words; binding and its absence hold for the method and conditions named. In cells and extracts the contact can be indirect. Binding calls can cover weak binding; strength is not graded here. Where a sequence is shown, tags or fusion partners need not be part of it.

In assay [1] the target is TolA V55C with C-terminal eight-histidine tag (Escherichia coli (strain K12)) (UniProt P19934). Put plainly: cross-linking; disulfide between cysteines introduced in TolR_β6 and TolA_β; complex shifted to a higher molecular weight (Supplementary Fig. S9b).
Assay [2] deals with TolA V53C with C-terminal eight-histidine tag (Escherichia coli (strain K12)) (UniProt P19934). The description is as above.

B1: TolR L137C with C-terminal strep-tag (protein, UniProt P0ABV6 1-142)
chain: MARARGRGRRDLKSEINIVPLLDVLLVLLLIFMATAPIITQSVEVDLPDATESQAVSSNDNPPVIVEVSGIGQYTVVVEKDRLERLPPEQVVAEVSSRFKANPKTVFLIGGAKDVPYDEIIKALNLLHSAGVKSVGCMTQPI
In the case of B1, the binding result in assay [1] is reported as “binds”.

B2: TolR V135C with C-terminal strep-tag (protein, UniProt P0ABV6 1-142)
chain: B1 chain with V135C, C137L
For the molecule B2, the binding entry in assay [2] is recorded as “binds”.
